Data reported in US20230265037A1, “METHOD FOR MAN[…] CALCIUM CITRATE BY USING SHELL AND APPLICATION THEREOF” (KOREA RESEARCH INSTITUTE OF CHEMICAL TECHNOLOGY, priority 2020, published 2023).

Assay: Fluorine removal experiment (residual fluorine concentration of filtrate by ion concentration meter)
Conditions: for Residual fluorine concentration: HF solution 1,000 ppm (experimental value 970 ppm), reacted 30 minutes
Description: In order to confirm the fluorine removal rate using the powder or solution prepared in Examples 1 to 3, a fluorine removal experiment was performed by the following method, and the residual fluorine concentration of the filtrate remaining after the experiment was measured using an ion concentration meter and is shown in Tables 2 to 4. At this time, a Metrohm 930 compact IC Flex model from Metrohm was used as the ion concentration meter.
A 50% hydrofluoric acid (HF) solution with a concentration of 1,000 ppm was prepared, and so that the molar ratio of calcium ion:fluoride ion is 1:2, 2:2, 10.56 g and 21.12 g of the mono calcium citrate powder recovered in Example 1 were mixed with 1 L of water to make a solution, the hydrofluoric acid and the solution were reacted for 30 minutes, and the results are shown in Table 2.
A 50% hydrofluoric acid (HF) solution with a concentration of 1,000 ppm was prepared, 4.75 g, 9.5 g, and 19.1 g of the tricalcium citrate powder recovered in Example 2 were mixed with 1 L of water so that the molar ratio of calcium ion:fluoride ion was 1:2, 2:2, and 4:2 to form a slurry, the hydrofluoric acid and the slurry were reacted for 30 minutes, and the results are shown in Table 3. (Tricalcium citrate (C12H10Ca3O14) contains 3 moles of calcium ions per mole, so ⅓ of the theoretical amount is added.)
A 50% hydrofluoric acid (HF) solution with a concentration of 1,000 ppm was prepared, the solution in which the shells and citric acid were dissolved prepared in Example 3 was mixed with 1 L of water and reacted for 30 minutes, and the results are shown in Table 4.

[1] = molar ratio calcium ion:fluoride ion 1:2
[2] = molar ratio calcium ion:fluoride ion 2:2

SMILES | Residual fluorine concentration [1] [ppm] | Residual fluorine concentration [2] [ppm] | residual concentration of fluorine (summary) (summary of Tables 2 and 3) [ppm] | Residual fluorine concentration (molar ratio calcium ion:fluoride ion 4:2) [ppm]
O=C([O-])CC(O)(CC(=O)O)C(=O)O.O=C([O-])CC(O)(CC(=O)O)C(=O)O.[Ca+2] [Example 1, mono calcium citrate] | 7.3 | 2.2 | ≤ 10 | 
O=C([O-])CC(O)(CC(=O)[O-])C(=O)[O-].O=C([O-])CC(O)(CC(=O)[O-])C(=O)[O-].[Ca+2].[Ca+2].[Ca+2] [Example 2, tricalcium citrate] | 23 | 16.2 |  | 16.5
